Measurements: patent US20080287469A1, “Phosphoinositide 3-Kinase Inhibitors for Inhibiting Leukocyte Accumulation” (priority 2005, published 2008)
For part of these data: For at least one compound, name, drawing or mass did not settle the structure. Some results were stated once for a whole list of compounds, not compound by compound.

Experiments:
[1] = system: class I PI3Ks; conditions: cited from earlier work
[2] = system: Akt phosphorylation in HUVECs; conditions: Madge et al.; cited from earlier work
[3] = system: E-selectin; experiment: Flow cytometric analysis of E-selectin expression on TNFα-stimulated HUVECs; conditions: TNFα 4 hr; IC87114 2 to 50 μM, LY294002 10 μM, Bay 11-7082 10 μM
[4] = system: neutrophils; conditions: Constantin et al.; cited from earlier work
[5] = system: TNFα-stimulated HUVEC monolayers; experiment: Laminar flow assay: neutrophil capture by TNFα-stimulated HUVEC monolayers; assay type: cell-based, human; conditions: wall shear rate 200 s^−1; IC87114 2 μM, LY294002 10 μM, Bay 11-7082 10 μM, CL3 50 μg/ml
Experimental: Peripheral blood neutrophils were isolated from healthy volunteers and infused over the endothelial cell monolayer that was incorporated into a parallel plate flow chamber (GlycoTech) for 5 min at a shear rate of 200 s^−1. (Puri et al., Blood, 103:3448-3456 (2004)) Approval was obtained from the Washington University institutional review board for these studies. Informed consent was provided according to the Declaration of Helsinki. Neutrophil-endothelial cell interactions were recorded and analyzed as previously described. (Puri et al., Blood, 103:3448-3456 (2004)) For E-selectin blockade, HUVECs were incubated with mAb CL3 (50 μg/ml, 15 min) prior to adhesion assays.

Row | Structure (SMILES) | variation of IC50 values among the four class I PI3Ks [1] [fold] | phosphorylation of Akt in response to TNF in endothelium [2] | TNFα-induced expression of E-selectin [3] | selectin-dependent adhesion after blockade of PI3K activity in neutrophils [4] | reduction of capture/attachment of untreated neutrophils [5]
1 | O=c1cc(N2CCOCC2)oc2c(-c3ccccc3)cccc12 [LY294002] | ~10 | reduce phosphorylation of Akt | No difference in E-selectin expression | does not alter selectin-dependent adhesion | over 45%
2 | COC[C@H]1OC(=O)c2coc3c2[C@@]1(C)C1=C(C3=O)[C@@H]2CCC(=O)[C@@]2(C)C[C@H]1OC(C)=O [wortmannin] | – | – | – | does not alter selectin-dependent adhesion | –
